Laboratory results reported in patent US20110014214A1.
Results are given in words; binding and its absence hold for the method and conditions named. In cells and extracts the contact can be indirect. Some results given as binding are weak or reduced against the parent protein; the word gives no strength. Where a sequence is shown, tags or fusion partners need not be part of it.

Chains of the proteins cited; added tags and fusions are not shown. Lines headed by an entry give the natural chain unless they say otherwise; changes in a name come on top. Residues count along the entry.
UniProt P05554: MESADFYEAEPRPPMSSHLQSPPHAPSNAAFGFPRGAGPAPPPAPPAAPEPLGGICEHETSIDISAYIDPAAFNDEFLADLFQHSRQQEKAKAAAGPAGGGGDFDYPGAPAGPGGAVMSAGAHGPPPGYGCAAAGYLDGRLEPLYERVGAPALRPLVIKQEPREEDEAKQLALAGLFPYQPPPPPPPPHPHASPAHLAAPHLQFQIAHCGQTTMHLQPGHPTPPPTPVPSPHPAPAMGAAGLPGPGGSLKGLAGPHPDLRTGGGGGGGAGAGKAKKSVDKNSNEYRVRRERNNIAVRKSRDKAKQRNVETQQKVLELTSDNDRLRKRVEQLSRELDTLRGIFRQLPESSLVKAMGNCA
HA-C/EBPαp30: residues 118-358 of P05554

Key:
HA-C/EBPαp30 (rat) = HA-C/EBPαp30 (rat) (UniProt P05554); assay: co-immunoprecipitation (Myc IP, HA western) from 293T cells; seen without MG132 (lane 5) and with MG132 (lane 4)
[1] = target: HA-tagged (C-terminus) C/EBPαp42 (rat) (UniProt P05554); assay: co-immunoprecipitation (Myc IP, HA western) from 293T cells pretreated with MG132 (lane 4)

binding (HA-C/EBPαp30 (rat)): binds
binding [1]: binds
B1: myc-tagged (C-terminus) Trib2 (murine Trib2 in pcDNA3.1/myc-HIS) (protein, not shown: small tags and cut ends)
chain: MNIHRSTPITIARYGRSRNKTQDFEELSSIRSAEPSQSFSPNLGSPSPPETPNLSHCVSCIGKYLLLEPLEGDHVFRAVHLHSGEELVCKVFEISCYQESLAPCFCLSAHSNINQITEILLGETKAYVFFERSYGDMHSFVRTCKKLREEEAARLFYQIASAVAHCHDGGLVLRDLKLRKFIFKDEERTRVKLESLEDAYILRGDDDSLSDKHGCPAYVSPEILNTSGSYSGKAADVWSLGVMLYTMLVGRYPFHDIEPSSLFSKIRRGQFNIPETLSPKAKCLIRSILRREPSERLTSQEILDHPWFSTDFSVSNSGFGAKEACDQLVPDVNMEENLDPFFN
